Data: the supplement of paper PMC10849652
This is one part of the list.

Amino acid sequences for entries named in this document (tags omitted). A change or cut given only in a name is not applied to a line headed by its entry.
UniProt Q8NBA8: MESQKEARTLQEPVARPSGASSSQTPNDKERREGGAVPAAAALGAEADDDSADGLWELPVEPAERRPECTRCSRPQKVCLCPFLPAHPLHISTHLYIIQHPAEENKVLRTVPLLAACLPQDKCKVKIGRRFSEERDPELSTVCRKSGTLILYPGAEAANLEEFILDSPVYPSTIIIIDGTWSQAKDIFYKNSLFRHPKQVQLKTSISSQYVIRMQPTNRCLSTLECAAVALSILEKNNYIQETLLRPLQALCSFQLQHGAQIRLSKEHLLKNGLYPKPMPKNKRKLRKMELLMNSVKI
UniProt Q9NX74: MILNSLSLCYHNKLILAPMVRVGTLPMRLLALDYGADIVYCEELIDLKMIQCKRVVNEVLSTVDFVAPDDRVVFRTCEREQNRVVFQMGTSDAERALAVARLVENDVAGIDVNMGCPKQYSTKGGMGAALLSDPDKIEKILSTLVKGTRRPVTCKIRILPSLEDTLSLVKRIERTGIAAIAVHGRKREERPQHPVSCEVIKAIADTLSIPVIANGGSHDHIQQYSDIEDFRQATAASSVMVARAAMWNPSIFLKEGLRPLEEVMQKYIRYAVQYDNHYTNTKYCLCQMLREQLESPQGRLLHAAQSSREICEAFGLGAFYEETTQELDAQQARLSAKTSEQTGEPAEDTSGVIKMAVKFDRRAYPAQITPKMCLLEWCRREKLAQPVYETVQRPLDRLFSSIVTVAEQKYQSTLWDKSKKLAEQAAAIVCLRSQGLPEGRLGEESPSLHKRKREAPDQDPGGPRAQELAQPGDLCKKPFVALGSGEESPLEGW
UniProt O75521: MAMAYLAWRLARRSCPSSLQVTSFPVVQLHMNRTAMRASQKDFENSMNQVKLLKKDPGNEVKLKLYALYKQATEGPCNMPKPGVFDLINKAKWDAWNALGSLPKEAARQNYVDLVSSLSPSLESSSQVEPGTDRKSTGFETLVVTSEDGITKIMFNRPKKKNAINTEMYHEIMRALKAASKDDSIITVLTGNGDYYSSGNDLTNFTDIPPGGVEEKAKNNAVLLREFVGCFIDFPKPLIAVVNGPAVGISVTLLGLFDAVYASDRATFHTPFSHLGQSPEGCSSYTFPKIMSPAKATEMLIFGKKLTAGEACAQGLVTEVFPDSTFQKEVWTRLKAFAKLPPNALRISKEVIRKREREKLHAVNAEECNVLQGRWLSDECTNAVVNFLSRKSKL
UniProt Q08426: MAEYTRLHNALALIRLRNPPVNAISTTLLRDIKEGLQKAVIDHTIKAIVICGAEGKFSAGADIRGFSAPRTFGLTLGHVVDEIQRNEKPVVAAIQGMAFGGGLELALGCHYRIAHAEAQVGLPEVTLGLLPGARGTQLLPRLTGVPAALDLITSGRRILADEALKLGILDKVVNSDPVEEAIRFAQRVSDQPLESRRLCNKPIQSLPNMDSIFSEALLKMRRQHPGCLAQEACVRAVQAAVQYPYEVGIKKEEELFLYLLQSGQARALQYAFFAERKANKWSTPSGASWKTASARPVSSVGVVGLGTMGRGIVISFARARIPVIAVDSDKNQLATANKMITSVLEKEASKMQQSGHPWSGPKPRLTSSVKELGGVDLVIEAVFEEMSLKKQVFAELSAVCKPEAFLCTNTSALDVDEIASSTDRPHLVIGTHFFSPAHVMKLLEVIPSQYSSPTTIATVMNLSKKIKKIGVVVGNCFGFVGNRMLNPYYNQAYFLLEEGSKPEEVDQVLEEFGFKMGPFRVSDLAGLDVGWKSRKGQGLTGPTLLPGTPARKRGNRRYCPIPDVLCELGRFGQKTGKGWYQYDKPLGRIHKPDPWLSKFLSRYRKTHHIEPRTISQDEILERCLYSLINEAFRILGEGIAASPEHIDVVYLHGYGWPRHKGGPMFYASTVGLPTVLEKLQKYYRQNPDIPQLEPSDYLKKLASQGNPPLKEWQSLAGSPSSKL
UniProt Q6XUX3: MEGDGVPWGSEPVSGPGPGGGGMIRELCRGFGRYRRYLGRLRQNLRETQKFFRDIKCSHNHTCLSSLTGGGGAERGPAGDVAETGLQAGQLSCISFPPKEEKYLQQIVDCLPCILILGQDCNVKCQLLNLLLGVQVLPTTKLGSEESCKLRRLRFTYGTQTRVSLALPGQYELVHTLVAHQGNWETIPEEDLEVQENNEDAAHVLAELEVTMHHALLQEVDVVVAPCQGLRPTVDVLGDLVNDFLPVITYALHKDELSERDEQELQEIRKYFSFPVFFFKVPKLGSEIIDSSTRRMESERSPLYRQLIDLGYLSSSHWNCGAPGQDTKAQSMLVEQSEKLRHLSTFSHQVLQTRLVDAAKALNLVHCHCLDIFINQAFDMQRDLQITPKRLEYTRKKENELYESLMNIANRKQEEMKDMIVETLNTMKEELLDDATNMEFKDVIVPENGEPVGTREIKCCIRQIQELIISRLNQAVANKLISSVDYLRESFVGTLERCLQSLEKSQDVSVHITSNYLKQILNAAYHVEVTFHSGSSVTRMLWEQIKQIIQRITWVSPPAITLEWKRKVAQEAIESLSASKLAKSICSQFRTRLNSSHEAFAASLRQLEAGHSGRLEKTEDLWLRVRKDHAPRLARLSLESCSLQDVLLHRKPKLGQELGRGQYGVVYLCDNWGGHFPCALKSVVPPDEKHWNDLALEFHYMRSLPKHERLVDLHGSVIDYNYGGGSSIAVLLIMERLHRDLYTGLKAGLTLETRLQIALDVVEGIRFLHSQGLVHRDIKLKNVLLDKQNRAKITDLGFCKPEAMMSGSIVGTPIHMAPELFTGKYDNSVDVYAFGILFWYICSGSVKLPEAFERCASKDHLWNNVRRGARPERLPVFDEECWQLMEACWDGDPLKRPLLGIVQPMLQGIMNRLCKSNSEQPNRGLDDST
UniProt Q86UW9: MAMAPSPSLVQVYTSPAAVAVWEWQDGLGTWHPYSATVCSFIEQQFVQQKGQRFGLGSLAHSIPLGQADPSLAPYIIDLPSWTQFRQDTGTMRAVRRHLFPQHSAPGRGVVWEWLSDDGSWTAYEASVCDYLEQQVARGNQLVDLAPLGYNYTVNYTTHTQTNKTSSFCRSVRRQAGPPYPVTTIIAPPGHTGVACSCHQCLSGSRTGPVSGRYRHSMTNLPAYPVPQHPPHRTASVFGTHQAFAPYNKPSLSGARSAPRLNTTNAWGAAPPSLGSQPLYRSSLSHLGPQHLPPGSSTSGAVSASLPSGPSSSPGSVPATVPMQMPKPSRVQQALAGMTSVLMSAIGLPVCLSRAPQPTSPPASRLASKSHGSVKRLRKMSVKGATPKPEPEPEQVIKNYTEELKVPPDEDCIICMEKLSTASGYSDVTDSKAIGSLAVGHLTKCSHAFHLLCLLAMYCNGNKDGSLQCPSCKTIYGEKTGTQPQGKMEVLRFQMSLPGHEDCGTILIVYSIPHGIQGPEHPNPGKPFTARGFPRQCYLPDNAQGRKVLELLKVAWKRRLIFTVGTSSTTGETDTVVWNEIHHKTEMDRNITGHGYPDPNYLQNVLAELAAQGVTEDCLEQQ
UniProt Q9C005, whole entry, looked up: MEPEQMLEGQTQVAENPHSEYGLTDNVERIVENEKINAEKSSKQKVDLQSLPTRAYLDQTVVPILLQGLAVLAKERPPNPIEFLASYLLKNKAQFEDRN
UniProt Q8TCX1: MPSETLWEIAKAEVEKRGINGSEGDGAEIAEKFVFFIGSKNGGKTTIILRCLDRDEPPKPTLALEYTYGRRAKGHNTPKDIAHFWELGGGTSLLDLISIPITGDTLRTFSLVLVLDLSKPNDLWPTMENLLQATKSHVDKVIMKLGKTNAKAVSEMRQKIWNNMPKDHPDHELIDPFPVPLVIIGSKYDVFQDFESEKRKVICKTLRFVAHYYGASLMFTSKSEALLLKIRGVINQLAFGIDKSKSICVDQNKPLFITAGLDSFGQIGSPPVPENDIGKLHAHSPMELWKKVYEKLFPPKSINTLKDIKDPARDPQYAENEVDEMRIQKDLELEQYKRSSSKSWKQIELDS
UniProt Q9UHF1: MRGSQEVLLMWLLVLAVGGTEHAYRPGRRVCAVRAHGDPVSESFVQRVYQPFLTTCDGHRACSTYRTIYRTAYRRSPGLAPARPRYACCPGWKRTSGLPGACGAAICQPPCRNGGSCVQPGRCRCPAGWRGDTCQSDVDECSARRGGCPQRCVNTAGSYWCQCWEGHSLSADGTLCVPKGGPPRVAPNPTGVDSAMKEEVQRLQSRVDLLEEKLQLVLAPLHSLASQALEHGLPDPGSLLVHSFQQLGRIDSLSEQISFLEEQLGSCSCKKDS
UniProt P32926: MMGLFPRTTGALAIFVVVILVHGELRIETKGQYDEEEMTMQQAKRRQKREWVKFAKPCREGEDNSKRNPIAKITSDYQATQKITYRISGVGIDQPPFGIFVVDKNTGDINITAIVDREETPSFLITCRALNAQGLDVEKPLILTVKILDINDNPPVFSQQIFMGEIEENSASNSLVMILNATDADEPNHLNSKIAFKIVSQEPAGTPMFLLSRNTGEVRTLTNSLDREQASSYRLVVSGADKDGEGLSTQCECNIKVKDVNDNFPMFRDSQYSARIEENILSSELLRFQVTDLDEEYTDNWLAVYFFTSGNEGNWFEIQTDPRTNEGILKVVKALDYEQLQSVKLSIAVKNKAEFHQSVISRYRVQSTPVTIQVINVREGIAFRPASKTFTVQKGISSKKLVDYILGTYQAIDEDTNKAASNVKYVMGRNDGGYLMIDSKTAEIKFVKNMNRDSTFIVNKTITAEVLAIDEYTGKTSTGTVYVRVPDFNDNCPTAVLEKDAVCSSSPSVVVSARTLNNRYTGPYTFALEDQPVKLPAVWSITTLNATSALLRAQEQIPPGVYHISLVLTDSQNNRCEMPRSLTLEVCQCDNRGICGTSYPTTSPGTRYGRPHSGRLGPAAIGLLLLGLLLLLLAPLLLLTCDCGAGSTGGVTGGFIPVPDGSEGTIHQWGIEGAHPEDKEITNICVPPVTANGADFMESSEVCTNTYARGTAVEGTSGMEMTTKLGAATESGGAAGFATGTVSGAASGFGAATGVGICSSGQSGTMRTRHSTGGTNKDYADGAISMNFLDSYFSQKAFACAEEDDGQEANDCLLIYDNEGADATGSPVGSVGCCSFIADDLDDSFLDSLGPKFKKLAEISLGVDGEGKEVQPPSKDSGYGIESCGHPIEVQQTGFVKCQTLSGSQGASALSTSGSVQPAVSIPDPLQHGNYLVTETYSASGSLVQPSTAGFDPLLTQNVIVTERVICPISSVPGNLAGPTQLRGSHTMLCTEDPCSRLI
UniProt O60869: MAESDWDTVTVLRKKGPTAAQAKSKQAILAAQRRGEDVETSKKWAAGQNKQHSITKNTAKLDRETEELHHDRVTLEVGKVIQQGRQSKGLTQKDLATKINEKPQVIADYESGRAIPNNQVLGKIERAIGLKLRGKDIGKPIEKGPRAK
UniProt Q8WVE0: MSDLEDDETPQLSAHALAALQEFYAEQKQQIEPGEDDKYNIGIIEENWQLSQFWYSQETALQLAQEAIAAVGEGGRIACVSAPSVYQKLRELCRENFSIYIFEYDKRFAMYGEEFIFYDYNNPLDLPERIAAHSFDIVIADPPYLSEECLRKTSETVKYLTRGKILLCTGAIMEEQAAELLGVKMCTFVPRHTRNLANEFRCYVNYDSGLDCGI
UniProt Q9BTV6: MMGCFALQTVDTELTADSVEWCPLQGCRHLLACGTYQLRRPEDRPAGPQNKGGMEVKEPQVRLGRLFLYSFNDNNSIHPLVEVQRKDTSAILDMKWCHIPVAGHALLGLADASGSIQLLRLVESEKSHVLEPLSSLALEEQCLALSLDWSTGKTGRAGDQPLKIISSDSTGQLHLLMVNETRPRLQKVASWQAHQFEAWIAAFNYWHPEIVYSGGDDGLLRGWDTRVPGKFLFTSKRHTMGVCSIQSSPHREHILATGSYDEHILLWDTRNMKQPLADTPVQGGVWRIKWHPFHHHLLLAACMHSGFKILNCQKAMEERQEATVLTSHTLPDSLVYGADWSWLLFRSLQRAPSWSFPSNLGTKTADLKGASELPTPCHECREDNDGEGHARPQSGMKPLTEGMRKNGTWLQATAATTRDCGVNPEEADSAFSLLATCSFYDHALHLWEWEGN
UniProt Q9NZN4: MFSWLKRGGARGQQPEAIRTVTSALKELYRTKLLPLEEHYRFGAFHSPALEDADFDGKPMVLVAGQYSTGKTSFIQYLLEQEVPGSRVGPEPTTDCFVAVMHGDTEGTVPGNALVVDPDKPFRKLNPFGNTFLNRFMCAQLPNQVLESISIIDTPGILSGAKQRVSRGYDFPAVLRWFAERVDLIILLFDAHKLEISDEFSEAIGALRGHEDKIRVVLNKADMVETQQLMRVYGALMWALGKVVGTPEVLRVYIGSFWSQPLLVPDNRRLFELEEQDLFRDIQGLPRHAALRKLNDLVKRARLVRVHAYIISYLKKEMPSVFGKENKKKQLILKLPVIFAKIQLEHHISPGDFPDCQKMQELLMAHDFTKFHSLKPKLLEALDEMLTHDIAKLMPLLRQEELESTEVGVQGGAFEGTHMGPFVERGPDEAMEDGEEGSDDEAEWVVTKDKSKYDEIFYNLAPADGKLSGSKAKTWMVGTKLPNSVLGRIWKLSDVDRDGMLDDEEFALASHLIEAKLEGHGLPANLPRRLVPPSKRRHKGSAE

Tests used:
Assay in all cases: log2 fold change, soluble protein after heating vs DMSO (PISA); higher = thermal stabilisation; K562 lysate, 10 uM; active = over 0.2 and 3.5 SD of the protein, either way, in both replicates (recomputed)
[1] = compound: CC1=C2C(=CC=C1)N=C(N(C2=O)C3=CC=CC=C3C)CN4C=NC5=C(N=CN=C54)N
How it was run: (§1)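 A 30 min treatment with 10 μM compound was applied to crude K562 extract at 1 mg/mL protein in PBS pH 7.4 with 1 mM MgCl2. Heating for 3 min spanned 48°C-58°C, after which aliquots were pooled, adjusted to 0.5% NP-40 at 4°C and spun at 21,000xg for 90 min. TMTpro 16plex LC-MS/MS of the supernatant, with channel sums equalised, gave values recorded as log-two fold change in thermal stability against solvent controls, from duplicates.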

[2] = compound: c1ccc([C@@H]2C[C@H]2NC2CCNCC2)cc1
How it was run: as §1

[3] = compound: C1=CC=C(C=C1)[C@H](COC2=CC3=C(C=C2)NC(=O)N3)NC(=O)C4=CC=CN(C4=O)CC5=CC(=C(C=C5)F)F
How it was run: as §1

[4] = compound: CC1=C(SC2=C1C(=N[C@H](C3=NN=C(N32)C)CC(=O)N)C4=CC=C(C=C4)Cl)C
How it was run: as §1

[5] = compound: Cc1sc2c(c1C)C(c1ccc(Cl)cc1)=N[C@@H](CC(=O)OC(C)(C)C)c1nnc(C)n1-2
How it was run: as §1

Measured: log2 fold change

EGLN2 (UniProt Q96KS0)
inactive: [1] -0.03 | [2] -0.189

DVL1 (UniProt O14640)
inactive: [1] 0

E2F3 (UniProt O00716)
inactive: [3] 0.042 | [4] -0.079 | [1] 0.046 | [5] 0 | [2] -0.064

DTWD2 (UniProt Q8NBA8)
inactive: [3] -0.032 | [4] -0.02 | [2] 0.068

DUS2 (UniProt Q9NX74)
inactive: [3] 0.037 | [4] 0.018 | [1] -0.018 | [5] 0.055 | [2] 0.116

DYNLT3 (UniProt P51808)
inactive: [2] -0.047

ECI2 (UniProt O75521)
inactive: [3] 0.019 | [4] -0.005 | [1] 0.014 | [5] -0.009 | [2] -0.045

EHHADH (UniProt Q08426)
inactive: [3] 0.035 | [4] -0.143 | [5] -0.086 | [2] 0.031

DST isoform 3 (UniProt Q03001)
inactive: [3] -0.039 | [4] -0.033 | [2] 0.586

DSTYK (UniProt Q6XUX3)
inactive: [2] 0.048

DVL3 (UniProt Q92997)
inactive: [3] -0.041 | [4] 0.035 | [1] 0.164 | [2] 0.27

DTX2 (UniProt Q86UW9)
inactive: [3] -0.036 | [4] 0.011 | [5] 0.003 | [2] 0.079

DPY30 (UniProt Q9C005)
inactive: [1] 0.118 | [5] 0.004 | [2] 0.286

DYNC2LI1 (UniProt Q8TCX1)
inactive: [3] 0.013 | [4] -0.052 | [1] -0.102 | [5] 0.025 | [2] -0.034

EDEM2 (UniProt Q9BV94)
inactive: [1] 0.001 | [5] -0.076 | [2] 0.005

EEF2KMT (UniProt Q96G04)
inactive: [1] 0.217 | [5] -0.054 | [2] -0.167

ECH1 (UniProt Q13011)
inactive: [3] -0.059 | [4] 0.008 | [1] -0.006 | [5] -0.026 | [2] 0.012

DUSP19 (UniProt Q8WTR2)
inactive: [3] -0.024 | [4] -0.033 | [2] -0.253

EGFL7 (UniProt Q9UHF1)
inactive: [1] -0.077

DPH2 (UniProt Q9BQC3)
inactive: [3] 0.028 | [4] 0.056 | [1] 0.021 | [5] 0.039 | [2] -0.041

DYRK1A isoform 2 (UniProt Q13627)
inactive: [3] -0.001 | [4] -0.028 | [2] -0.339

DSG3 (UniProt P32926)
inactive: [3] 0.197 | [4] 0.037 | [2] -0.265

DRG2 (UniProt P55039)
inactive: [3] -0.002 | [4] 0.014 | [1] 0.026 | [5] -0.089 | [2] 0.012

EID1 (UniProt Q9Y6B2)
inactive: [5] 0.024 | [2] -0.022

DRAM2 (UniProt Q6UX65)
inactive: [3] 0.088 | [4] -0.001 | [2] -0.131

DSC2 (UniProt Q02487)
inactive: [3] -0.079 | [4] 0.009 | [1] -0.092 | [5] -0.053 | [2] -0.01

DUSP14 (UniProt O95147)
inactive: [1] 0.069 | [5] -0.449 | [2] 0.044

EDF1 (UniProt O60869)
inactive: [3] -0.01 | [4] 0.012 | [1] -0.006 | [5] -0.013 | [2] -0.028

EHMT2 (UniProt A2ABF8)
inactive: [3] 0.037 | [4] 0.007 | [1] 0.019 | [5] 0.029 | [2] 0.012

EEF1AKMT1 (UniProt Q8WVE0)
inactive: [3] -0.073 | [4] -0.075 | [5] 0.017

DPY19L1, A0A1B0GW05
inactive: [3] 0.1 | [4] -0.014 | [1] -0.052 | [5] -0.02 | [2] 0.046

2 records drawn at random from those above, as already listed:
EID1 (UniProt Q9Y6B2)
inactive: [5] 0.024 | [2] -0.022

DPY30 (UniProt Q9C005)
inactive: [1] 0.118 | [5] 0.004 | [2] 0.286

More entries follow.

DPM3 isoform 2 (UniProt Q9P2X0)
inactive: [3] -0.082 | [4] -0.03 | [2] 0.078

DPH7 (UniProt Q9BTV6)
inactive: [3] 0.002 | [4] 0.027 | [1] 0.063 | [5] -0.059 | [2] -0.06

EHD2 (UniProt Q9NZN4)
inactive: [3] -0.074 | [4] -0.065 | [1] 0.003 | [5] -0.069 | [2] 0.087
